The source of these data is paper PMC5591008.

No constants are given. Whether binding was seen depends on the method and setting. In cells and extracts the contact can be indirect. A result given as binding can be weak or reduced; the word gives no strength. Sequences can lack the tags named with a protein.

This experiment has as its target Kek6-Flag (Drosophila). Put plainly: co-IP; co-transfected S2 cells, 48 h after transfection, lysed in NP-40 buffer (50 mM Tris-HCl pH 8.0, 150 mM NaCl, 1% Igepal-630); IP with mouse anti-V5 or anti-HA and protein-A/G magnetic beads, or with anti-Flag magnetic beads; Western blot.

B1: VAP33A-HA (protein, UniProt Q9W4N8 1-269)
chain: MSKSLFDLPLTIEPEHELRFVGPFTRPVVTIMTLRNNSALPLVFKIKTTAPKRYCVRPNIGKIIPFRSTQVEICLQPFVYDQQEKNKHKFMVQSVLAPMDADLSDLNKLWKDLEPEQLMDAKLKCVFEMPTAEANAENTSGGGAVGGGTGAAGGGSAGANTSSASAEALESKPKLSSEDKFKPSNLLETSESLDLLSGEIKALRECNIELRRENLHLKDQITRFRSSPAVKQVNEPYAPVLAEKQIPVFYIAVAIAAAIVSLLLGKFFL
On to B1, for which the binding result is recorded as “binds”.
